# Source: PubChem BioAssay AID504786 (Drosophila RNAi Screening Center, 2011)
# Purpose: 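Positive regulators of HIF-driven reporter output in Drosophila cells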 (primary screen)
# System: Drosophila S2 cells with a stable HIF luciferase reporter
# Knock-down reagent: long dsRNA against Drosophila genes, about 0.2 µg dsRNA per well of a 384-well plate
# Duration: three days of knock-down, then 20 h of DFO before reading
# Treatment: desferrioxamine (DFO) at 100 µM, an iron chelator that mimics hypoxia, for 20 h
# Read-out: 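HIF reporter luminescence in cells given 100 µM DFO for 20 h, using the mouse ldh-a hypoxia-response element, scored as per-plate z-scores; higher means greater loss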
# Scale: z-score: higher = stronger loss of HIF reporter signal
# The screen tested about 21,000 reagents; this is a random part of those with a known target gene and a result. 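Primary screen; positive scores mean lost reporter signal, so the sign may be inverted from the usual convention.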
target gene,DRSC id,"z-score, replicate 1","z-score, replicate 2"
CG10298,DRSC12522,-0.4,-0.1
SkpE,DRSC19431,-0.3,-0.1
CG1304,DRSC20494,-0.2,-0.3
CG17027,DRSC10238,-0.3,-0.2
unc79,DRSC15746,-0.3,-0.3
CG1789,DRSC18140,0.1,1.9
sip3,DRSC15402,-0.4,-0.4
ERR,DRSC10840,-0.4,-0.5
Cep135,DRSC09345,-0.5,0.1
Cep135,DRSC10244,-0.3,-0.5
Antdh,DRSC20307,-0.2,-0.5
CG15330,DRSC18014,-0.3,-0.4
CG5707,DRSC08573,-0.2,0
norpA,DRSC18806,-0.2,-0.7
Asap,DRSC06493,-0.3,-0.4
Asap,DRSC06830,-0.4,-0.6
Acsf3,DRSC18146,0,-0.3
CG15824,DRSC00473,-0.3,-0.2
Cyp313a5,DRSC16628,-0.3,-0.7
CG5653,DRSC10534,-0.3,2.2
AP-2mu,DRSC14090,-0.4,-0.5

Sorted by “z-score, replicate 1” (lowest first): some entries from above.
target gene,DRSC id,"z-score, replicate 1","z-score, replicate 2"
Asap,DRSC06830,-0.4,-0.6
Asap,DRSC06493,-0.3,-0.4

More records follow.
target gene,DRSC id,"z-score, replicate 1","z-score, replicate 2"
sano,DRSC06165,-0.2,-0.3
CG14131,DRSC10135,0,-0.7
CG15406,DRSC00420,-0.2,0.2
CG33978,DRSC17106,-0.2,-0.2
CG10151,DRSC05974,-0.3,-0.4
Gfrl,DRSC15197,-0.3,-0.6
Gfrl,DRSC15199,-0.3,-0.1
Gfrl,DRSC15565,-0.2,-0.3
Gfrl,DRSC15719,-0.1,-0.3
CG3565,DRSC04389,-0.3,-0.5
stretch (retired record),DRSC14347,-0.3,-0.2
stretch (retired record),DRSC14512,-0.3,-0.7
stretch (retired record),DRSC14541,-0.2,-0.7
stretch (retired record),DRSC14542,-0.4,-0.7
stretch (retired record),DRSC14543,-0.3,1.5
